Consider one substance from patent publication US20090286283A1.

Sequences of proteins named here, by UniProt entry; tags and fusion partners are left off. A change or cut given only in a name is not applied to a line headed by its entry.
UniProt A8A271: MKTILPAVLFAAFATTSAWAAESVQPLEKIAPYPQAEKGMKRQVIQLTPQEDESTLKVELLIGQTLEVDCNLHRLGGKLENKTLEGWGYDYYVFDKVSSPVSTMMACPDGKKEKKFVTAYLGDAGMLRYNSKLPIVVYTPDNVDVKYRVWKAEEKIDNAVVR
UniProt P07477: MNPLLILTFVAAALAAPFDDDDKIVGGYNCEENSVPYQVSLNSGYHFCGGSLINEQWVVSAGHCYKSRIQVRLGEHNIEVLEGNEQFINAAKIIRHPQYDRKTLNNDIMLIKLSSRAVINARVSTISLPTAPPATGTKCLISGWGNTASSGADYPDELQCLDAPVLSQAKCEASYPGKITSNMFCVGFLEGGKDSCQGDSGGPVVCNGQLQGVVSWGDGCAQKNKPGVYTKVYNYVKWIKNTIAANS

Results are given in words; binding and its absence hold for the method and conditions named. Some results given as binding are weak or reduced against the parent protein; the word gives no strength.

The target of this test is Ecotin of Sequence ID No. 1 (E. coli) (UniProt A8A271). The experiment in a line: ecotin affinity chromatography, SDS-PAGE.

In the case of “mutant human cationic trypsinogen (PRSS1) with the 200th serine changed to alanine (SEQ ID NO: 2) (from UniProt P07477 24-247) (enzyme)”, the binding entry is given as “binds”.
